# Measured values taken from PMC11212238.
# Biological target: T1, RAB11B (human (endogenous in SH-SY5Y)) (UniProt Q15907)
# T1 sequence: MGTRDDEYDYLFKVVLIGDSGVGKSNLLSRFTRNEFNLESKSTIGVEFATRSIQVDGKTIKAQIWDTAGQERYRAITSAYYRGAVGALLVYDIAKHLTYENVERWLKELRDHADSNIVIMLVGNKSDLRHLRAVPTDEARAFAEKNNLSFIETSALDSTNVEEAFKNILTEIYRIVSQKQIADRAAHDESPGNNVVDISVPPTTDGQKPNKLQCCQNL
# Experiment: proximity ligation; Duolink In Situ Red kit on fixed, permeabilised SH-SY5Y cells infected with EV-A71 S41 (MOI 0.1), 24 h.p.i.; uninfected cells too for CCT8 with RAB11A; pairs of mouse and rabbit primary antibodies
row,Substance,binding
1,EV-A71 3C,binds
2,EV-A71 VP1,binds
3,EV-A71 VP2,binds

# Results are given in words; binding and its absence hold for the method and conditions named. In cells and extracts the contact can be indirect. A result given as binding can be weak or reduced; the word gives no strength.
